According to PubChem BioAssay AID588590 (National Center for Advancing Translational Sciences (NCATS), 2011):
“And” between values parts separate entries of the source, which are not always exact repeats. Identical values can stand only once. The whole screen tested about 390,000 compounds, of which about 4,000 (1%) were called active. Inconclusive results, whose numbers are uncertain, are shown with a selection of clear calls. The call rests on the fitted dose curve; in most records, active means well fitted inhibition curve with a large enough effect; inconclusive means small, poorly fitted or top-dose-only effect, or another doubt; inactive means no such curve, though single readings can be large or run the other way. A potency beside an inconclusive call is a rough fit, not a confirmed value.
Potency means the concentration at half of the fitted maximal effect.

By UniProt entry, the sequences of proteins in these tests, tags left out. Where a name states a change or a piece, a line headed by the entry shows the natural chain unless it says otherwise.
UniProt Q9UNA4: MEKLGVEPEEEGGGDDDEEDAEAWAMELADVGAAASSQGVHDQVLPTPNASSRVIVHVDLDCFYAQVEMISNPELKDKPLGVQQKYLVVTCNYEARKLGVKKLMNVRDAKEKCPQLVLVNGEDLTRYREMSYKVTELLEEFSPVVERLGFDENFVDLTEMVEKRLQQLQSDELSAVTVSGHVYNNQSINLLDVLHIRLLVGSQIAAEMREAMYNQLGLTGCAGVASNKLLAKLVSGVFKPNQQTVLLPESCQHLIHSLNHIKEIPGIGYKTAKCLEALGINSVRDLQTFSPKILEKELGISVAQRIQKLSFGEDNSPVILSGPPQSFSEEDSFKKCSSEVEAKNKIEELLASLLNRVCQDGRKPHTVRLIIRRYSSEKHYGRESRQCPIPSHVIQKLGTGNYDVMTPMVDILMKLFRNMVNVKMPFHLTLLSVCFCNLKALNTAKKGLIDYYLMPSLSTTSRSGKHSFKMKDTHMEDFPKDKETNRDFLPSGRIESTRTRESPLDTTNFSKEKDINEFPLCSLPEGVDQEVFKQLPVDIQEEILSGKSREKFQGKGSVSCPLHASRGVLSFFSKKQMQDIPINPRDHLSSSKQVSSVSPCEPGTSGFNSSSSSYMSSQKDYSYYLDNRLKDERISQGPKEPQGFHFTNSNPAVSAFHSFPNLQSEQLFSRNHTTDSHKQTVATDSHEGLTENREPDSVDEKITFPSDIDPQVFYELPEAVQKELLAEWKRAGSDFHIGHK

These compounds were tested against DNA polymerase iota (Homo sapiens) (UniProt Q9UNA4) (assay: qHTS for Inhibitors of Polymerase Iota). Details: Pol iota fluorescent replication assay, 10 min; series mostly up to 115 µM; activity, negative = inhibition: at the top concentration.
Outline: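 Pol iota at 10 nM preincubated 15 min with compounds at room temperature; reaction started with fluorescent substrate, 50 nM final. Fluorescence read kinetically at 0 and 10 min; buffer-only wells as negative control.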
With `C=C(C(=O)c1ccccc1)C(C)CC(=O)c1ccccc1` (configuration not stated) the Potency was inconclusive: 56.2 µM [inhibitor, partial curve, poor fit].
In the case of `O=S(=O)(c1ccc(NCCOc2ccccc2)nc1)N1CCCC1`, the “activity, negative = inhibition” value is reported as inactive: 16.9%.
In the case of `CCc1c(C)sc2nc3c(C(=O)N4CCOCC4)cc(C(=O)c4ccccc4O)cn3c(=O)c12`, the “activity, negative = inhibition” value is reported as inactive: 50.6%.
In the case of `COc1ccc(/C=N/Nc2cc(C)nc3ccccc23)cc1`, the Potency is reported as inconclusive: 50.1 µM [inhibitor, partial curve, poor fit].
In the case of `Cc1ccc2nc3sc(C(=O)Nc4c(C)[nH]c(=O)[nH]c4=O)c(N)c3cc2c1`, the “activity, negative = inhibition” value is reported as inactive: 4.22%.
`O=C(CSc1nncc2ccccc12)Nc1cccc(O)c1` was tested, and the Potency was inconclusive: 89.1 µM [inhibitor, single point].
In the case of `CN1C2CCC1CC(OC(=O)c1c[nH]c3ccccc13)C2` (configuration not stated), the Potency is reported as “inactive”.
`COc1ccccc1NC(=O)Cn1nnc(C(=O)NCc2ccc3c(c2)OCO3)c1N` was tested, and the Potency was inconclusive: 20 µM [inhibitor, full curve].
In the case of `COc1ccc(CCNC(=O)CNCC(c2ccccc2)N(C)C)cc1OC` (configuration not stated), the “activity, negative = inhibition” value is reported as inactive: 23.4%.
In the case of `Cc1ccc(-c2nn3c(C)nnc3s2)cc1NC(=O)c1ccco1`, the Potency is reported as inconclusive: 35.5 µM [inhibitor, full curve, poor fit].
For `CN(C)c1ccc(/C=C2\C=Nc3ccccc32)cc1`, the “activity, negative = inhibition” value was inactive: 16.8%.
`O=C(Nc1ccc(N2CCCC2=O)cc1)c1cccc(F)c1` was tested, and the Potency was inconclusive: 112 µM [inhibitor, partial curve, poor fit].
With `CCS(=O)(=O)Nc1ccc(-c2nnc(SCC(=O)c3ccc(NC(C)=O)c(OC)c3)o2)cc1` the Potency was inconclusive: 79.4 µM [inhibitor, partial curve, poor fit].
For `CN(C)S(=O)(=O)c1ccc(SCC(=O)Nc2cccc(S(=O)(=O)N3CCCC3)c2)nc1`, the Potency was inconclusive: 12.6 µM [inhibitor, single point].
For `Cc1noc(/C=C/c2ccco2)c1S(=O)(=O)N1CCC(C(=O)N2CCc3ccccc32)CC1`, the Potency was inconclusive: 39.8 µM [inhibitor, single point].
With `Cc1ccc2[nH]c3c(=O)n(CC(=O)N4CCN(C)CC4)ncc3c2c1` the Potency was inconclusive: 25.1 µM [inhibitor, full curve, poor fit].
For `CN(C)c1ccc(/C=C/c2ccnc3c([N+](=O)[O-])cccc23)cc1`, the Potency was inconclusive: 89.1 µM [inhibitor, single point].
With `Cc1cc(/C=N/NC(N)=S)c(O)c(/C=N/NC(N)=S)c1` the “activity, negative = inhibition” value was inactive: 44.2%.
For `COc1ccc(-n2c(C)cc(C(=O)COc3ccc(C)nc3[N+](=O)[O-])c2C)cc1`, the Potency was inconclusive: 100 µM [inhibitor, single point].
With `O=C(O)c1ccc(N/N=C/C=C/c2ccc([N+](=O)[O-])o2)cc1` the Potency was active: 8.91 µM.
`Cc1cccc(NC(=O)c2c(NC(=O)C(F)(F)F)sc3c2CCCCC3)c1` was tested, and the Potency was inconclusive: 79.4 µM [inhibitor, partial curve].
With `CN=C1SC(CC(=O)NCCc2ccc(OC)c(OC)c2)C(=O)N1C` (configuration not stated) the Potency was “inactive and inconclusive: 50.1 µM [inhibitor, partial curve]”.
`CC1=NN(c2ccc(Cl)c(C(=O)O)c2)C(=O)/C1=C/c1ccc(-c2ccccc2[N+](=O)[O-])o1` was tested, and the Potency was active: 1.41 µM.
With `O=C(N[C@H](Cc1ccc(Cl)cc1)C(=O)O)OCC1c2ccccc2-c2ccccc21` the Potency was inconclusive: 89.1 µM [inhibitor, single point].
`CCCCOc1ccc(C(C)(O)CCN2CCOCC2)cc1` (configuration not stated) was tested, and the Potency was inconclusive: 89.1 µM [inhibitor, partial curve, poor fit].
With `CCc1ccc(CNCc2c(C(=O)O)n(Cc3cccc(F)c3)c3cc(OC)ccc23)cc1` the “activity, negative = inhibition” value was inactive: 7.43%.
`O=C(c1ccco1)N1CCN(c2nc3ccsc3c(=O)s2)CC1` was tested, and the Potency was inconclusive: 89.1 µM [inhibitor, single point].
For `CCOC(=O)Nc1ccc2c(c1)N(C(=O)CCN(C)C)c1ccccc1CC2`, the Potency was inconclusive: 15.8 µM [inhibitor, full curve, poor fit].
With `COC1=CC(=O)C(OC)=C(OC)C1=O` the Potency was inconclusive: 5.62 µM [inhibitor, full curve, poor fit].
With `CC(=O)OCC(NC(=O)C(COCc1ccccc1)NC(=O)OC(C)(C)C)C1OC(n2cc(F)c(=O)[nH]c2=O)C(OC(C)=O)C1OC(C)=O` (configuration not stated) the “activity, negative = inhibition” value was inactive: 29.2%.
`CCOC(=O)CNC(=S)N1CCn2c(nc3ccccc32)C1` was tested, and the “activity, negative = inhibition” value was inactive: 2.51%.
`COc1cc2[nH]c(C(=O)N3CCc4ccccc43)cc2c(OC)c1OC` was tested, and the Potency was inconclusive: 20 µM [inhibitor, full curve].
`CCC(=O)Oc1ccc(C(=O)Nc2cccc(C(=O)c3ccccc3)c2)cc1` was tested, and the “activity, negative = inhibition” value was inactive: 0.806%.
For `Cc1nc2sc3c(NCc4ccco4)ncnc3c2c2c1COC(C)(C)C2`, the Potency was inconclusive: 14.1 µM [inhibitor, partial curve, poor fit].
With `Cc1cccc2sc(NC(=O)CN(C)S(=O)(=O)c3ccc(Br)s3)nc12` the Potency was inconclusive: 89.1 µM [inhibitor, partial curve, poor fit].
For `CCOc1ccc(NC(=O)CC2C(=O)OCCN2CC)cc1` (configuration not stated), the Potency was inconclusive: 89.1 µM [inhibitor, single point].
With `Cc1ccccc1-n1c(=O)c2ccccc2n(CC(=O)NCc2ccco2)c1=O` the Potency was inconclusive: 56.2 µM [inhibitor, partial curve, poor fit].
In the case of `Cc1ccc(NC(=O)Cn2cc3c(n2)CCCCC3)cc1`, the Potency is reported as inconclusive: 100 µM [inhibitor, partial curve, poor fit].
In the case of `C/C(=N\NC(=O)c1ccn(C)n1)c1ccc(NC(=O)C2CCC2)cc1`, the Potency is reported as inconclusive: 79.4 µM [inhibitor, single point].
For `CCOC(=O)c1c(C)[nH]c(N=Nc2cc(C(=O)O)cc(C(=O)O)c2)c1C`, the Potency was inconclusive: 28.2 µM [inhibitor, single point].
With `CCN(c1ccccc1)c1ncnc2c1cnn2-c1ccc(C)cc1C` the “activity, negative = inhibition” value was inactive: -3.97%.
`CCc1cccc(NC(=O)CSCc2cc(=O)[nH][nH]2)c1` was tested, and the Potency was inconclusive: 50.1 µM [inhibitor, partial curve, poor fit].
